# Measured values taken from PubChem BioAssay AID540256 (National Center for Advancing Translational Sciences (NCATS), 2011).
# Screen size: about 300,000 compounds; about 3,700 (1.2%) were called active. Inconclusive means that the source gave no clear call. Such entries were picked first, then a sample of the others. The call rests on the fitted dose curve; tested in HEK293 cells. Where the call is inconclusive, the potency comes from a doubtful curve fit.
# Test: qHTS for Inhibitors of binding or entry into cells for Lassa Virus; further: nearly all actives have a fitted effect of over 50% in size
# Details: Lassa virus pseudotype entry inhibition, cell reporter; activity change, negative = inhibition: at 37.9 µM (top of the series) unless noted
# On the % scale 0 is the no-effect control and ±100 the full control effect; potency means the concentration at half of the fitted maximal effect.
SMILES,Potency,"activity change, negative = inhibition"
CC(C)Cc1nc(N2CCN(C(=O)c3ccco3)CC2)c(C#N)c2c1CCC2,"inconclusive: 14.6 µM [inhibitor, partial curve, poor fit]",–
COc1ccc(/C=N/OCC(=O)N2CC3(C)CC2CC(C)(C)C3)cc1 (stereo not drawn),"inconclusive: 16.4 µM [inhibitor, single point]",–
COc1cc2[nH]c3c(N4CCN(c5ccccn5)CC4)ncnc3c2cc1OC,"inconclusive: 14.1 µM [inhibitor, partial curve, poor fit]",–
COc1ccc(N2C(=O)CSC23C(=O)N(Cc2ccc(C)cc2)c2ccccc23)cc1Cl (stereo not drawn),"inconclusive: 7.08 µM [inhibitor, partial curve, poor fit]",–
Cc1nc(NCc2ccco2)c2c3c(sc2n1)CCC3,inactive,–
CCOc1cccc(CC(=O)N2CCc3c([nH]c4ccccc34)C2c2ccc(SC)cc2)c1OCC (stereo not drawn),"inconclusive: 5.62 µM [inhibitor, single point]",–
O=C(COc1ccccc1)Nc1ccc(S(=O)(=O)NCc2ccco2)cc1,active: 23.1 µM,–
CCCCNC(=O)Nc1ccc(C(O)(C(=O)OCC)C(F)(F)F)cc1 (stereo not drawn),"inconclusive: 14.6 µM [inhibitor, partial curve, poor fit]",–
Cc1ccc2c(c1)c1nc3ccccc3nc1n2CCN1CCOCC1,"inconclusive: 0.708 µM [activator, single point]",–
CCC(C)c1cc(S(=O)(=O)N2CCOCC2)ccc1OC (stereo not drawn),"inconclusive: 1.26 µM [inhibitor, partial curve, poor fit]",–
O=C(NC1CCCC1)c1cc(-c2ccc(F)cc2)on1,"inconclusive: 17.8 µM [inhibitor, single point]",–
O=C(Cn1ccc2cc(S(=O)(=O)N3CCCCC3)ccc21)NCc1ccccc1Cl,"inconclusive: 35.5 µM [inhibitor, single point]",–
CCOc1ccccc1C(=O)NCCCN1CCN(CCCNC(=O)c2ccccc2OCC)CC1,"inconclusive: 1.16 µM [activator, single point]",–
CCc1cccc(NC(=O)C2CCN(S(=O)(=O)c3c(C)noc3C)CC2)c1,"inconclusive: 32.6 µM [inhibitor, partial curve, poor fit]",–
CC1CCCCN1S(=O)(=O)c1ccc(NC(=O)c2cccs2)cc1 (stereo not drawn),"inconclusive: 14.6 µM [inhibitor, partial curve, poor fit]",–
CCOc1ccccc1NC(=O)CSc1nnc2ccc(-c3ccccn3)nn12,inactive,–
Cc1ccccc1C(=O)Nc1nnc(-c2ccco2)s1,active: 4.11 µM,–
O=C(NCC(c1ccc(F)cc1)N1CCOCC1)c1ccc([N+](=O)[O-])o1 (stereo not drawn),inactive,–
O=C(NCCO)c1nc(NCCO)c2ccccc2n1,inactive,–
COc1ccccc1/C=C/c1nc(C#N)c(NCC(C)C)o1,"inconclusive: 3.16 µM [inhibitor, full curve, poor fit]",–
CCOc1ccc(OC(=O)c2ccc3c(=O)n4c(nc3c2)CCC4)cc1,"inconclusive: 3.55 µM [activator, full curve, poor fit]",–
Cn1c(=O)c2c(c3ccccc31)OC(=O)CC2c1cccc(Cl)c1 (stereo not drawn),inactive,–

# 2 entries picked at random from the list so far, as already listed:
SMILES,Potency,"activity change, negative = inhibition"
CCOc1ccc(OC(=O)c2ccc3c(=O)n4c(nc3c2)CCC4)cc1,"inconclusive: 3.55 µM [activator, full curve, poor fit]",–
CCOc1ccccc1C(=O)NCCCN1CCN(CCCNC(=O)c2ccccc2OCC)CC1,"inconclusive: 1.16 µM [activator, single point]",–

# (next part)

SMILES,Potency,"activity change, negative = inhibition"
O=C1CC(NS(=O)(=O)c2ccccc2F)CN1c1ccc2c(c1)OCCO2 (stereo not drawn),"inconclusive: 6.31 µM [inhibitor, single point]",–
CCN(CC)CCOC(=O)c1ccc(Nc2c3c(nc4ccccc24)CCC3)cc1,"inconclusive: 7.94 µM [inhibitor, partial curve, poor fit]",–
C/C(=N\NC(=O)c1nc2ccccn2c1C)c1ccco1,inactive,–
COc1ccc(CC(=O)Nc2ccc(S(=O)(=O)Nc3nccs3)cc2)cc1,"inconclusive: 11.2 µM [inhibitor, single point]",–
CCc1ccc(NC(=O)CN2C(=O)c3ccccc3Sc3ccc(C(=O)N4CCCC4)cc32)cc1,inactive,–
COc1ccc(Nc2ccc(OC)cc2)cc1,"inconclusive: 35.5 µM [inhibitor, single point]",–
COc1ccc(CNC(=O)c2sc3nc4n(c(=O)c3c2C)CCCCC4)cc1,inactive,–
O=C(Cn1c(NCCO)nc2ccccc21)c1ccccc1,inactive,–
O=C(/C(=C\c1ccccc1)c1nc2ccccc2[nH]1)c1ccc(Cl)cc1,"inconclusive: 15.8 µM [inhibitor, single point]",–
CN(C)CC(C)(C)CNC(=O)C1CCN(Cc2ccccc2O)CC1,"inconclusive: 1.83 µM [inhibitor, full curve, poor fit]",–
O=C(C1CCC1)N1CCC(c2nc3c(nnn3Cc3c(F)cccc3Cl)c(=O)[nH]2)CC1,"inconclusive: 7.08 µM [inhibitor, partial curve, poor fit]",–
CCN(CC)S(=O)(=O)c1ccc2oc(C(=O)NCc3ccc(F)cc3)c(C)c2c1,active: 5.8 µM,–
Cc1cc(OCCN2CCC(Cc3ccccc3)CC2)ccc1[N+](=O)[O-],inactive,–
CC(C)(C)c1ccc(-c2nnc(N)o2)cc1,inactive,–
COc1ccc(-n2ccnc(NCc3ccccc3Cl)c2=O)cc1OC,"inconclusive: 10 µM [activator, partial curve, poor fit]",–
CC1CC(C)CN(S(=O)(=O)c2ccc(C(=O)N3CCN(c4ccccc4)CC3)cc2)C1 (stereo not drawn),"inconclusive: 18.3 µM [inhibitor, single point]",–
CCOC(=O)c1cc(-c2ccccc2)n(CCCC(=O)Nc2ccccc2C)c1C,"inconclusive: 12.6 µM [inhibitor, partial curve, poor fit]",–
COc1ccc(-n2c(O)c(Cc3ccccc3)c(=O)n3nc(-c4ccccc4)c(=O)cc23)cc1,"inconclusive: 3.98 µM [activator, single point]",–
Cc1cc(NS(=O)(=O)c2ccc(NC(=O)Nc3cccc(C(F)(F)F)c3)cc2)no1,–,inconclusive: 25.1% [activator] [at 46.1 µM]
COc1cc(OC)cc(C(=O)N/N=C(\C)CC(=O)Nc2ccccn2)c1,"inconclusive: 0.562 µM [inhibitor, partial curve, poor fit]",–
Cc1cn2c(=O)cc(COC(=O)c3ccc(NC(=O)c4ccccc4C)cc3)nc2s1,inactive,–
